Among all 390,000 compounds or so, about 610 (0.16%) were called active. Inconclusive results, whose numbers are uncertain, are shown with a selection of clear calls. Calls come from the whole dose curve; as a rule, active = well fitted inhibition curve with a large enough effect; inconclusive = small, poorly fitted or top-dose-only effect, or effect the other way, or another doubt; inactive = no such curve, though single readings can be large or run the other way. A potency beside an inconclusive call is a rough fit, not a confirmed value.
Experiment: Nrf2 qHTS screen for inhibitors: counterscreen for cytotoxicity
Details: A549 ARE-Fluc cells, CellTiter-Fluor viability, 18-24 h; activity change, negative = cytotoxicity: at 46 µM (top of the series)
Summary of the method: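 A549 ARE-Fluc cells in 5% FBS OPTI-MEM, 5000 cells/well, rested 2 h then exposed to compounds in concentration-response for 18-24 h at 37 °C. Viability by CellTiter-Fluor fluorescence (Ex 405/Em 525) after 30 min; luciferase luminescence (BugLite, 15 min, RT) read afterwards.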
% is set by controls: 0 for no effect and ±100 for the full control effect; potency is the fitted concentration of half-maximal effect.

Row | SMILES | Potency | activity change, negative = cytotoxicity
1 | O=C(c1cnn2c(C(F)F)cc(C3CC3)nc12)N1CCCC1 | inconclusive: 20.6 µM [activator, partial curve, poor fit] | 
2 | c1ccc(Nc2nc(N3CCNCC3)nc(N3CCOCC3)n2)cc1 |  | inactive: -10.8%
3 | O=C(CSc1nc2ccccc2c(=O)n1-c1ccc(SC(F)F)cc1)Nc1ccc(N2CCOCC2)cc1 |  | inactive: 1.25%
4 | CC(NC(=O)Nc1cccc([N+](=O)[O-])c1)(C(F)(F)F)C(F)(F)F | inconclusive: 29.1 µM [falling, single point] | 
5 | Cc1ccc(-n2cc(C(=O)Oc3ccc(F)cc3)c3ccccc3c2=O)cc1 | inconclusive: 18.4 µM [activator, partial curve, poor fit] | 
6 | CCN(CC)CC#CCC(O)(c1ccccc1)C1CCCC1 (configuration not stated) | inconclusive: 29.1 µM [falling, single point] | 
7 | CCOc1ccc2oc(C(=O)N(Cc3nnc(-c4ccccc4Cl)o3)C3CC3)c(C)c2c1 |  | inactive: -14.2%
8 | Cc1ccc2c(=O)cc(C(=O)Nc3ccc(S(=O)(=O)Nc4onc(C)c4C)cc3)oc2c1C |  | inactive: 12.5%
9 | Nc1cc(-c2ccccc2)c[nH]c1=O | active: 5.8 µM | 
10 | COCc1cc(C)nc(SCC(=O)Oc2ccc(Cl)cc2)c1C#N |  | inactive: -3.87%
11 | CCN(C(=O)Cn1c(=O)n(-c2ccccc2)c(=O)c2ccc(C(=O)NCc3ccc4c(c3)OCO4)cc21)c1cccc(C)c1 |  | inactive: -0.0618%
12 | CCCCOc1ccc(CSCCNC(=S)Nc2ccccc2)cc1 | inconclusive: 29.1 µM [activator, partial curve, poor fit] | 
13 | CC1CCCCC1NC(=O)c1cn(C)c2ccc(S(=O)(=O)N3CCCC3)cc2c1=O (configuration not stated) |  | inactive: -5.32%
14 | COc1cccc(Oc2ccc(C(F)(F)F)cc2NC(=O)CCc2nc3ccccc3c(=O)[nH]2)c1 | inconclusive: 29.1 µM [falling, partial curve, poor fit] | 
15 | CC(C)(C)c1nc2ccccc2c2nnc(SCC(=O)Nc3nc4ccccc4s3)n12 | inconclusive: 16.4 µM [falling, single point] | 
16 | COc1ccccc1CNC(=O)C1(NC(=O)Nc2ccc(C)cc2)CCCCC1 | inconclusive: 23.1 µM [falling, single point] | 
17 | CCOC(=O)N1CCN(S(=O)(=O)c2ccc(C(=O)NNc3nc4ccc(Cl)cc4s3)cc2)CC1 | inconclusive: 13 µM [falling, partial curve, poor fit] | 
18 | COc1cc(C(=O)NC(c2ccc(Cl)cc2)c2cc(Cl)c3cccnc3c2O)cc(OC)c1OC (configuration not stated) | inconclusive: 5.17 µM [falling, partial curve] | 
19 | COCCC(=O)N1CCC(Oc2ccc(C(=O)NC3Cc4ccccc4C3)cc2)CC1 |  | inactive: 0.552%
20 | CCN1CCN(CCCNC(=O)c2ccc3c(Cl)c4c(nc3c2)CCCC4)CC1 | inconclusive: 14.6 µM [falling, single point] | 
21 | N#C/C(=C(/O)CCl)c1nc2ccccc2[nH]1 | inconclusive: 14.6 µM [falling, partial curve, poor fit] | 
22 | C=CCN(CC=C)c1cnn(-c2nc3ccccc3[nH]2)c(=O)c1Cl |  | inactive: -0.314%
23 | CCc1c(C)c(C#N)c2nc3ccccc3n2c1NCCOC | inconclusive: 29.1 µM [falling, single point] | 
24 | Nc1ccc2c(c1)C(=O)c1cc(N)c(Cl)cc1-2 | inconclusive: 25.9 µM [falling, partial curve, poor fit] | 

Row | SMILES | Potency | activity change, negative = cytotoxicity
25 | O=C(NCc1ccccc1)c1nncc(-c2ccccc2)n1 |  | inactive: -5.81%
26 | CCOc1ccc(CN=C(N)N=C(N)N)cc1Cl | inconclusive: 6.51 µM [falling, partial curve, poor fit] | 
27 | CCc1ccccc1NC(=O)Cn1c2ncccc2c(=O)n1-c1ccccc1 |  | inactive: -4.33%
28 | COc1cc([N+](=O)[O-])cc(/C=N/NC(=O)Cn2nc(C)cc2C)c1O | inconclusive: 20.6 µM [falling, partial curve, poor fit] | 
29 | COc1ccc(C2=Nn3c(nnc3-c3ccccc3OC)SC2)cc1OCC1CC1 |  | inactive: -0.718%
30 | COc1ccccc1Cn1cc(C(=O)c2ccc(C)cc2)c(=O)c2cc3c(cc21)OCCO3 | inconclusive: 20.6 µM [falling, partial curve, poor fit] | 
31 | CCCc1nc2ccccc2c(C(=O)OCC(=O)Nc2ccc(S(=O)(=O)N3CCOCC3)cc2)c1CC | inconclusive: 23.1 µM [falling, single point] | 
32 | CCOC(=O)N1CCC(NC(=O)c2cc3sccc3n2CC)CC1 | inconclusive: 29.1 µM [falling, single point] | 
33 | CCOc1ccc(NC(=S)Nc2cc(C)[nH]n2)cc1 |  | inactive: -1.3%
34 | CC(C)c1ccc2c(c1)C(c1ccc(N3CCOCC3)cc1)=NNC(c1cccs1)=N2 |  | inactive: -26.9%
35 | Oc1ccccc1C(Nc1nccs1)c1ccc2cccnc2c1O (configuration not stated) | inconclusive: 11.6 µM [falling, partial curve] | 
36 | CCOc1ccc(NC(=O)CN(C)C(=O)c2ccncc2)cc1OCC |  | inactive: 1.36%
37 | O=C(Nc1ccccc1)N1N=CCC1c1ccccc1 (configuration not stated) |  | inactive: -1.51%
38 | C=CCn1c(SCC(=O)Nc2cccc(S(N)(=O)=O)c2)nnc1C1CCCCC1 |  | inactive: 5.17%
39 | COc1ccccc1N1CCN(C(=O)c2ccc(Cl)c(S(=O)(=O)NCc3ccco3)c2)CC1 |  | inactive: -26.1%
40 | O=C(Nc1ccccn1)c1ccc(S(=O)(=O)N2CCCC2)cc1 |  | inactive: -4.24%
41 | COc1ccc(NC(=O)CSc2n[nH]c(C)c2[N+](=O)[O-])cc1 | inconclusive: 29.1 µM [activator, partial curve, poor fit] | 
42 | CC(C)C[C@H]1CNC(=S)N1CC1CCN(CCCCc2ccccc2)CC1 |  | inactive: -2.08%
43 | COc1cc(Cl)c(C)cc1NC(=O)CSc1nnc(-c2ccccn2)n1Cc1ccco1 | inconclusive: 29.1 µM [falling, single point] | 
44 | O=[N+]([O-])c1cc2oc3c(c2c(C=NCc2ccccc2)c1O)CCCC3 | inconclusive: 32.6 µM [falling, partial curve, poor fit] | 
45 | Cc1ccc(N/N=C(\Cc2nc3ccccc3[nH]2)c2ccccc2)cc1 |  | inactive: -29.3%
46 | CN(CC(=O)Nc1cccc(Cl)c1)S(=O)(=O)c1ccc2c(c1)n(C)c(=O)c(=O)n2C | inconclusive: 32.6 µM [falling, single point] | 
47 | CC(=O)Nc1sc(N/N=C/c2ccccc2)nc1-c1ccc(C)cc1 |  | inactive: -3.57%
48 | CC(C)(C)NC(=O)CSc1nc2ccccc2c(=O)[nH]1 | inconclusive: 29.1 µM [falling, partial curve, poor fit] | 

Row | SMILES | Potency | activity change, negative = cytotoxicity
49 | Cc1ccc(N2CC(NC(=O)c3cc4ccccc4o3)CC2=O)cc1C (configuration not stated) |  | inactive: -12.4%
50 | Cc1ccc(Cl)cc1NC(=O)c1cc(NC(=O)C2CCCCC2C(=O)O)ccc1N1CCOCC1 (configuration not stated) | inconclusive: 13 µM [falling, partial curve] | 
51 | COc1ccccc1CNS(=O)(=O)c1ccc(-c2cnc(C3CC3)o2)cc1 | inactive | 
52 | COc1ccc(CNS(=O)(=O)NCc2ccc(C)cc2)cc1OC |  | inactive: -0.804%
53 | Nc1c(C(=O)Nc2ccc(S(=O)(=O)N3CCCC3)cc2)sc2nc3ccc(OC(F)(F)F)cc3cc12 | inconclusive: 18.4 µM [falling, single point] | 
54 | COC(=O)c1cc(C(=O)OCC(=O)N(C)C2CCS(=O)(=O)C2)cc([N+](=O)[O-])c1 (configuration not stated) |  | inactive: 4.81%
55 | Cc1nnc(NCc2n[nH]c(=O)c3ccccc23)c2ccccc12 | inconclusive: 13 µM [falling, partial curve, poor fit] | 
56 | COc1ccccc1Cn1c(/C=C/c2ccccc2)nc2ccccc21 | inconclusive: 29.1 µM [falling, single point] | 
57 | Cc1ccc(C)c(S(=O)(=O)N2CCN(C(=O)[C@@H](NC(=O)c3ccc(F)cc3)C(C)C)CC2)c1 | inconclusive: 20.6 µM [falling, partial curve, poor fit] | 
58 | Cc1ccc(OCC(=O)OC2=C(C(=O)c3ccccc3)N(C)S(=O)(=O)c3ccccc32)cc1 | inconclusive: 16.4 µM [falling, partial curve, poor fit] | 
59 | CCc1ccc(NS(=O)(=O)c2cc(-c3cnc(C4CC4)o3)ccc2C)cc1 | inconclusive: 16.4 µM [falling, single point] | 
60 | CN1CCCCc2c1nc1ccccc1c2N (tested in a mixture with another compound) |  | inactive: -2.42%
61 | CC(C)C(=O)NC(c1ccc(Cl)cc1Cl)c1ccc2cccnc2c1O (configuration not stated) | inconclusive: 29.1 µM [falling, single point] | 
62 | Cc1c(C)n(Cc2ccccc2)c2ccc(C(=O)OCCCN(C)C)cc12 | inconclusive: 23.1 µM [falling, single point] | 
63 | Cc1cc(/C=C2/SC(=S)N(c3cccc(Cl)c3)C2=O)c(C)n1-c1cccnc1 |  | inactive: -14.5%
64 | Cn1cnnc1Sc1nc([N+](=O)[O-])nn1C |  | inactive: -0.523%
65 | O=C(NCc1ccco1)C12CC3CC(C1)CC(C(=O)NCc1ccco1)(C3)C2 | inconclusive: 29.1 µM [activator, single point] | 
66 | COc1cc(NC(=O)Nc2cccc(-c3noc(C)n3)c2)cc(OC)c1OC |  | inactive: -3.69%
67 | COc1cccc(C2CC(=O)N(c3ccc(F)cc3)C3=C2C(=O)OC3)c1OC (configuration not stated) |  | inactive: -6.34%
68 | COc1ccc(-c2nnc(N(C)C(=O)c3ccno3)s2)cc1 |  | inactive: 1.36%
69 | Cc1ccc(C2CN(C)C3(C(=O)Nc4ccccc43)C23COc2ccccc2C3=O)cc1 (configuration not stated) |  | inactive: 0.706%
70 | COc1ccc(S(=O)(=O)N2N=C(C)Oc3ccccc3C2=O)cc1 | inconclusive: 5.17 µM [falling, partial curve, poor fit] | 
71 | CCN1/C(=C/C=C/C=C/C=C/c2sc3ccccc3[n+]2CC)Sc2ccccc21 | inconclusive: 20.6 µM [falling, single point] | 
72 | Cc1ccc(C(CC(=O)NCc2ccco2)c2ccc(OC(C)C)cc2)cc1 (configuration not stated) | inconclusive: 29.1 µM [falling, single point] | 

Five entries drawn at random from those above:
Row | SMILES | Potency | activity change, negative = cytotoxicity
54 | COC(=O)c1cc(C(=O)OCC(=O)N(C)C2CCS(=O)(=O)C2)cc([N+](=O)[O-])c1 (configuration not stated) |  | inactive: 4.81%
53 | Nc1c(C(=O)Nc2ccc(S(=O)(=O)N3CCCC3)cc2)sc2nc3ccc(OC(F)(F)F)cc3cc12 | inconclusive: 18.4 µM [falling, single point] | 
63 | Cc1cc(/C=C2/SC(=S)N(c3cccc(Cl)c3)C2=O)c(C)n1-c1cccnc1 |  | inactive: -14.5%
56 | COc1ccccc1Cn1c(/C=C/c2ccccc2)nc2ccccc21 | inconclusive: 29.1 µM [falling, single point] | 
60 | CN1CCCCc2c1nc1ccccc1c2N (tested in a mixture with another compound) |  | inactive: -2.42%

From PubChem BioAssay AID504648 (National Center for Advancing Translational Sciences (NCATS), 2011)
